{"sequences": {"note": "Chains of the proteins cited; added tags and fusions are not shown. Lines headed by an entry give the natural chain unless they say otherwise; changes in a name come on top.", "UniProt Q6P4A7": "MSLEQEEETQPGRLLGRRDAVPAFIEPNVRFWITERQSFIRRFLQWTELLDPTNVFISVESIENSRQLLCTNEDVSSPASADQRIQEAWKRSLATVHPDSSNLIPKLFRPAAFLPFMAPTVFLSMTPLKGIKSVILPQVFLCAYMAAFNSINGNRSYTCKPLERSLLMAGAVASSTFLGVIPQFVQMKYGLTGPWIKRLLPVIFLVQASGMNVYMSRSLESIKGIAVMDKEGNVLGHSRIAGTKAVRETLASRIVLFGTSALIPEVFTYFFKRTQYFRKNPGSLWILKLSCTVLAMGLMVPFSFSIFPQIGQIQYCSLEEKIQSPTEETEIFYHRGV", "UniProt Q9NR46": "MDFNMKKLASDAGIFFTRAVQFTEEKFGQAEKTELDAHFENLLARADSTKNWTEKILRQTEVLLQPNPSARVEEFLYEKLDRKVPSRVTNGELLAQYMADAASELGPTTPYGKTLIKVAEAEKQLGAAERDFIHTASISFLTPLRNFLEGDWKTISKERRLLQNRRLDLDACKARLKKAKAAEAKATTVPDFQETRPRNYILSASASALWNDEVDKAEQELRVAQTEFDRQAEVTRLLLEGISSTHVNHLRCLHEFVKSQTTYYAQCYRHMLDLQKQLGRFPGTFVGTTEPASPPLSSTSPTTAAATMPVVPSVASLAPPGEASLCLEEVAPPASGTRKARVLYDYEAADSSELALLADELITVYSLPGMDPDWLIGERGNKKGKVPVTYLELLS", "UniProt Q9NP31, whole entry, looked up": "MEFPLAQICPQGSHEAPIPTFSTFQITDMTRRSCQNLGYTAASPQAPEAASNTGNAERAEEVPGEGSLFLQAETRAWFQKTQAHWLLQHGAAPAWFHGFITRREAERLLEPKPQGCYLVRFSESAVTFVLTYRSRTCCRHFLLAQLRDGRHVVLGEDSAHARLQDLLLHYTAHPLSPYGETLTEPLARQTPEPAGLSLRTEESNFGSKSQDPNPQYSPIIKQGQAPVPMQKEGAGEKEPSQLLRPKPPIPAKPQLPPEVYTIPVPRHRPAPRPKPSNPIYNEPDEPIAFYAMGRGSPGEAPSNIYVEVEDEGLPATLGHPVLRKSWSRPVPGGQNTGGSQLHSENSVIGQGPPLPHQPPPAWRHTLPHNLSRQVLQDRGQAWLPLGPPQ", "UniProt P05543": "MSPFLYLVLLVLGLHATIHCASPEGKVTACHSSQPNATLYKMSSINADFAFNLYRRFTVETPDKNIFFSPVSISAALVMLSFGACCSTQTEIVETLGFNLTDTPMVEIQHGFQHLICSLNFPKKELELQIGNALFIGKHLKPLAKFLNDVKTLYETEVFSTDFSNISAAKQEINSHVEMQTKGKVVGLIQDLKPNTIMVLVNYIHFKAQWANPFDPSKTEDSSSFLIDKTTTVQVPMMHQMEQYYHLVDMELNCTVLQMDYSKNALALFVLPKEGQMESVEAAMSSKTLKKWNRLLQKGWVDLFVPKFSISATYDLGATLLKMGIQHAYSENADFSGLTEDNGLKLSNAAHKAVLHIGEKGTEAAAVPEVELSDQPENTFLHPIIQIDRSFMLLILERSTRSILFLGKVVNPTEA", "UniProt Q9UHW9": "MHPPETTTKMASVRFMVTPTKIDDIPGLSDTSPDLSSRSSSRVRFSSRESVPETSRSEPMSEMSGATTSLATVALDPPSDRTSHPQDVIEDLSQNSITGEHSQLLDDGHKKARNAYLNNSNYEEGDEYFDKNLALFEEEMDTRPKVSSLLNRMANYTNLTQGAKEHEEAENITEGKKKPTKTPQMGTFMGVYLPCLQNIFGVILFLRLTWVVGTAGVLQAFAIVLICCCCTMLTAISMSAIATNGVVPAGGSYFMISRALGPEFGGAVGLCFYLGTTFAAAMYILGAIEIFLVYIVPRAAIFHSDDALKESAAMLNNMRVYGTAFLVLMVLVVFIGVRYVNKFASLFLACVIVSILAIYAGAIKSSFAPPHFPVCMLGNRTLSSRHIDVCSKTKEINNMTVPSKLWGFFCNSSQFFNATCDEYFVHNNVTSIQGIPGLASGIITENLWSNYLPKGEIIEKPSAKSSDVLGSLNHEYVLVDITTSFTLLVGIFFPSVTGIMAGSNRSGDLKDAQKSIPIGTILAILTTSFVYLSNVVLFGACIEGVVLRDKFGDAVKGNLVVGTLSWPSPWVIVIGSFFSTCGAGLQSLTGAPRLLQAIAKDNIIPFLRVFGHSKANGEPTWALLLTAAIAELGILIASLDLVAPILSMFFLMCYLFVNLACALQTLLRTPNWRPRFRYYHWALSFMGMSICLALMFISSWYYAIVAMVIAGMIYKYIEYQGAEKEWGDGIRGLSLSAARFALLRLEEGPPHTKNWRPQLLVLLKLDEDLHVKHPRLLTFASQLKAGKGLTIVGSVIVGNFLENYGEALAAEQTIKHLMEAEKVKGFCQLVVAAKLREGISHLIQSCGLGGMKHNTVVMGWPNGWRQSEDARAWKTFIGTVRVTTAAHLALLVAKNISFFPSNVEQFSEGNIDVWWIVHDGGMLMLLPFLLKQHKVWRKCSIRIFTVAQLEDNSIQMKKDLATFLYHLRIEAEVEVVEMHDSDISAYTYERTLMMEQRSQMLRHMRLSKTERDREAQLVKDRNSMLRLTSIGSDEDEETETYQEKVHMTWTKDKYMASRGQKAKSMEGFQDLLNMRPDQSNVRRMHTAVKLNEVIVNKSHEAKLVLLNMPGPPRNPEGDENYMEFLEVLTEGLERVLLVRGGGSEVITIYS", "UniProt Q5FBB7": "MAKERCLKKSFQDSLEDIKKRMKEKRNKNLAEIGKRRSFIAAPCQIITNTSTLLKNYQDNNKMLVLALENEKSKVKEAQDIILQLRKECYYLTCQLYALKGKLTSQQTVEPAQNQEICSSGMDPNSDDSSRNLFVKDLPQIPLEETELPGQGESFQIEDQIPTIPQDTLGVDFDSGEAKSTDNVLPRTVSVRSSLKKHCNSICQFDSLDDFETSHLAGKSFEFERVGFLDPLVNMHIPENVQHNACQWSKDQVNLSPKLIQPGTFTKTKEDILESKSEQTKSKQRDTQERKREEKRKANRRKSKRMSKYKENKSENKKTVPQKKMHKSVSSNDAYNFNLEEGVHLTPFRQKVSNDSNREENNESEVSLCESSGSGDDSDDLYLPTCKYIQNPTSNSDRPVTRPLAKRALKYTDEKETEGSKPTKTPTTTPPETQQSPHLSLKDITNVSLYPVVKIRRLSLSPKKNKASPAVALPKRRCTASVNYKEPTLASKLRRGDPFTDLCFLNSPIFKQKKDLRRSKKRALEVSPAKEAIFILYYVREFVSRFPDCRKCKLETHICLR", "UniProt Q9BRV8": "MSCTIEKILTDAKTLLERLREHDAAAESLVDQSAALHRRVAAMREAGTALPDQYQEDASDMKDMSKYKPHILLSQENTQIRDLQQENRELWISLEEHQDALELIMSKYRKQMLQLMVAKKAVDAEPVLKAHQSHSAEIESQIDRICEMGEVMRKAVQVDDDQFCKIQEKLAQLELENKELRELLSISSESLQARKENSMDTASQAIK", "UniProt Q96JX3": "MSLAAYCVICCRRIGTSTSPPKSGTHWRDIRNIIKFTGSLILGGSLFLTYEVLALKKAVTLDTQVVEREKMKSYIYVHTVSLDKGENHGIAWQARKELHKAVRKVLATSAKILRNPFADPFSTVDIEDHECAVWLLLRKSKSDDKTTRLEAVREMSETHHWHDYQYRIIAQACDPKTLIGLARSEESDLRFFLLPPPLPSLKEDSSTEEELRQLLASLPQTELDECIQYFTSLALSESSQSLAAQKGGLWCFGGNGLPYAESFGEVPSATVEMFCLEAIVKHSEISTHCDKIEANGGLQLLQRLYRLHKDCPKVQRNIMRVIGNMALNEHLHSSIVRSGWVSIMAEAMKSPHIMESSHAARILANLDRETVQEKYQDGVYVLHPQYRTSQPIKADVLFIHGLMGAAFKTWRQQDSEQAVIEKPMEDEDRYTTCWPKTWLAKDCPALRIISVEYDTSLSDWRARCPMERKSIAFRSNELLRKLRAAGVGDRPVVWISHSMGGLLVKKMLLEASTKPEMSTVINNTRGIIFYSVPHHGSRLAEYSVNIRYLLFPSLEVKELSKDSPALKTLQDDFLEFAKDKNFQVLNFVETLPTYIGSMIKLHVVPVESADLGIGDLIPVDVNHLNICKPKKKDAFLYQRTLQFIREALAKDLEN", "UniProt P84101": "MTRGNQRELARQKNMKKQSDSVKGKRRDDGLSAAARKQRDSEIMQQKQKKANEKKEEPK", "UniProt Q99961": "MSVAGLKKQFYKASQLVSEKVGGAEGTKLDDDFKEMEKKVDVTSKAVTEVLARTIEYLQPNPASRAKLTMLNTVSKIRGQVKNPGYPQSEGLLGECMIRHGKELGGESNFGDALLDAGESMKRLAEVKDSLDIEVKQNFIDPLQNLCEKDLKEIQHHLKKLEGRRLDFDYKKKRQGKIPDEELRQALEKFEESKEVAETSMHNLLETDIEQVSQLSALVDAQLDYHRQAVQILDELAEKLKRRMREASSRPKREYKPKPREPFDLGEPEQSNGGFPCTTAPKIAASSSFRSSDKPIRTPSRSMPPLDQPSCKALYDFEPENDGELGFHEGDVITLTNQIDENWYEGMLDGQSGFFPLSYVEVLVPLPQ", "UniProt O60779": "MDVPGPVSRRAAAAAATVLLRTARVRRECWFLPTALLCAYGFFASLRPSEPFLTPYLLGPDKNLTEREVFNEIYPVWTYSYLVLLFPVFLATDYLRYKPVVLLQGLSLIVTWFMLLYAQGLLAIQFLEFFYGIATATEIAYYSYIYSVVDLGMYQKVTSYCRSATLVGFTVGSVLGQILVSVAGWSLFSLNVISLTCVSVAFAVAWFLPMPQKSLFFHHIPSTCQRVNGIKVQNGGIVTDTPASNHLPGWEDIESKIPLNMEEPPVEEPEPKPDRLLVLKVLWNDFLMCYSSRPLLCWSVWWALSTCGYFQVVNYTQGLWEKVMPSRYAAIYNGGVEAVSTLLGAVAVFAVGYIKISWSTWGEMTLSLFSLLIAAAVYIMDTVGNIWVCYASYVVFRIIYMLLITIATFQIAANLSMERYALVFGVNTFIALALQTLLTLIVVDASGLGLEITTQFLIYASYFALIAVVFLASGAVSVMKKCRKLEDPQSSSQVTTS", "UniProt Q9NRX5": "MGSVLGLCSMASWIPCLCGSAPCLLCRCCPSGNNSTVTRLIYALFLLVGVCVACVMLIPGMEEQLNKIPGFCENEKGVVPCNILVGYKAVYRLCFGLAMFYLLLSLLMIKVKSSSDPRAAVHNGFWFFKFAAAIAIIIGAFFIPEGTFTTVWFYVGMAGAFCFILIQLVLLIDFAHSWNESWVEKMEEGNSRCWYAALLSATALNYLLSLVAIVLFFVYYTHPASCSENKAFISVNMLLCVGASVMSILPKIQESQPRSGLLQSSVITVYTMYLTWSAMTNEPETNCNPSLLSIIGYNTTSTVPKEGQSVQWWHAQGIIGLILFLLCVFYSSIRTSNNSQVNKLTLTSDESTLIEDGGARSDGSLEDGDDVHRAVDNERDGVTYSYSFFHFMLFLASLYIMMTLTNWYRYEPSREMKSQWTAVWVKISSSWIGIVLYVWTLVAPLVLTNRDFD", "UniProt Q99963": "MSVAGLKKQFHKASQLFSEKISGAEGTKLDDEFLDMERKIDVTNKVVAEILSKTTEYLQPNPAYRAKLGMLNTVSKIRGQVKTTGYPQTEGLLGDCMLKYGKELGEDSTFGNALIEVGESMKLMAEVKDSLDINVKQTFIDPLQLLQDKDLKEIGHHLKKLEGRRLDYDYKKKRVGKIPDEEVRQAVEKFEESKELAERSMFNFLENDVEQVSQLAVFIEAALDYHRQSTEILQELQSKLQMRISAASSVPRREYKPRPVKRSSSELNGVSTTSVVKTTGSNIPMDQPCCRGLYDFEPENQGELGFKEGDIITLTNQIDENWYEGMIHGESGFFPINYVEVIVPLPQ", "UniProt Q12874": "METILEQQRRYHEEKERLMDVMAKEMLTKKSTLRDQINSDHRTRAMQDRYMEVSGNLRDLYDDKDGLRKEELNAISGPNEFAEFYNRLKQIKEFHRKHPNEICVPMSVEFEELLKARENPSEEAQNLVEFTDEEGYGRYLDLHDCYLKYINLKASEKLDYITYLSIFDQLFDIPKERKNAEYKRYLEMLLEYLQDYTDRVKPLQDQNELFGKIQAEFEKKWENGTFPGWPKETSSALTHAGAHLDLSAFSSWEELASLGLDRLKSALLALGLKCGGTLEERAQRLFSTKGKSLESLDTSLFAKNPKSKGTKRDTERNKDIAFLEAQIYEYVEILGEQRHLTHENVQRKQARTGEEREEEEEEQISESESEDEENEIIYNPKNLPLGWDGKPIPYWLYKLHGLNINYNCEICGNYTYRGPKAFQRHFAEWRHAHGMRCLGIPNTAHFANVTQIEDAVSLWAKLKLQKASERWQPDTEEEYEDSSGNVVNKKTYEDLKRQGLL"}, "source": "the supplement of paper PMC10849652", "note": "The list shows a part of the results."}
{"compound": "c1ccc([C@@H]2C[C@H]2NC2CCNCC2)cc1", "assay": "log2 fold change, soluble protein after heating vs DMSO (PISA); higher = thermal stabilisation; K562 lysate, 10 uM; active = over 0.2 and 3.5 SD of the protein, either way, in both replicates (recomputed)", "method_in_brief": "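The values are log-two fold changes in thermal stability compared with solvent controls and come from duplicates. They were obtained by TMTpro 16plex LC-MS/MS, with channel sums equalised, on the supernatant after 21,000xg for 90 min. That supernatant came from crude K562 extract at 1 mg/mL protein treated with 10 μM compound for 30 min, heated for 3 min across 48°C-58°C, pooled and brought to 0.5% NP-40 at 4°C.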"}
{"target": "SERPINC1 (UniProt P01008)", "log2 fold change": "inactive: -0.067"}
{"target": "SFXN4 (UniProt Q6P4A7)", "log2 fold change": "inactive: 0.063"}
{"target": "SIRT6 (UniProt Q8N6T7)", "log2 fold change": "inactive: -0.05"}
{"target": "SIRT2 (UniProt Q8IXJ6)", "log2 fold change": "inactive: -0.066"}
{"target": "SH3GLB2 (UniProt Q9NR46)", "log2 fold change": "inactive: 0.051"}
{"target": "SH2D2A isoform 2 (UniProt Q9NP31)", "log2 fold change": "inactive: 0.003"}
{"target": "SIRT1 (UniProt Q96EB6)", "log2 fold change": "inactive: 0.068"}
{"target": "SERPINA7 (UniProt P05543)", "log2 fold change": "inactive: 0"}
{"target": "SETD3 (UniProt Q86TU7)", "log2 fold change": "inactive: 0.011"}
{"target": "SFPQ (UniProt P23246)", "log2 fold change": "inactive: 0.014"}
{"target": "SLC12A6 (UniProt Q9UHW9)", "log2 fold change": "inactive: 0.008"}
{"target": "SGO1 (UniProt Q5FBB7)", "log2 fold change": "inactive: -0.039"}
{"target": "SF3A2 (UniProt Q15428)", "log2 fold change": "inactive: -0.049"}
{"target": "SIKE1 (UniProt Q9BRV8)", "log2 fold change": "inactive: 0.027"}
{"target": "SERAC1 (UniProt Q96JX3)", "log2 fold change": "inactive: 0.065"}
{"target": "SERF2 (UniProt P84101)", "log2 fold change": "inactive: -0.011"}
{"target": "SH3GL1 (UniProt Q99961)", "log2 fold change": "inactive: 0.003"}
{"target": "SLC19A2 (UniProt O60779)", "log2 fold change": "inactive: -0.001"}
{"target": "SH3BP5L (UniProt Q7L8J4)", "log2 fold change": "inactive: -0.024"}
{"target": "SLC20A2 (UniProt Q08357)", "log2 fold change": "inactive: 0.06"}
{"target": "SERINC1 (UniProt Q9NRX5)", "log2 fold change": "inactive: -0.116"}
{"target": "SH3GL3 isoform 3 (UniProt Q99963)", "log2 fold change": "inactive: -0.416"}
{"target": "SFXN4 isoform 3 (UniProt Q6P4A7)", "log2 fold change": "inactive: -0.089"}
{"target": "SF3A3 (UniProt Q12874)", "log2 fold change": "inactive: 0.103"}
